These are yes or no findings as the source states them, for the method shown. In cells and extracts the contact can be indirect. Some binding calls cover weakened binding; strength is not graded here.
T1: Nuclear Respiratory Factor 1 (NRF1) (UniProt Q16656)
T1 sequence (looked up): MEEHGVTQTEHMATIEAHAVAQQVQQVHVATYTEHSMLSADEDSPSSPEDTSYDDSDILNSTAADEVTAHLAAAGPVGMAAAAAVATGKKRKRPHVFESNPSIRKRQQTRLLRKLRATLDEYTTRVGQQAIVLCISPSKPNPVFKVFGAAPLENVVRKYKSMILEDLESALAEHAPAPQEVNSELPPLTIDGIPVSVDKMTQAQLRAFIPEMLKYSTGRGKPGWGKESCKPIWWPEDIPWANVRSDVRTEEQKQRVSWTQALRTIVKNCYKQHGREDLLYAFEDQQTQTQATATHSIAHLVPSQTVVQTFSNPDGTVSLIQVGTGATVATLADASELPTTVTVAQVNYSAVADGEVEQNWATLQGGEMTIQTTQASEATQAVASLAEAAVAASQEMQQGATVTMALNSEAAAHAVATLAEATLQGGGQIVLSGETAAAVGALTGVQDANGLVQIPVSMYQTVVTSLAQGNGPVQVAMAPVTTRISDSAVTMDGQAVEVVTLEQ

B1: endogenous SIRT7 (protein)
chain: MAAGGLSRSERKAAERVRRLREEQQRERLRQVSRILRKAAAERSAEEGRLLAESADLVTELQGRSRRREGLKRRQEEVCDDPEELRGKVRELASAVRNAKYLVVYTGAGISTAASIPDYRGPNGVWTLLQKGRSVSAADLSEAEPTLTHMSITRLHEQKLVQHVVSQNCDGLHLRSGLPRTAISELHGNMYIEVCTSCVPNREYVRVFDVTERTALHRHQTGRTCHKCGTQLRDTIVHFGERGTLGQPLNWEAATEAASRADTILCLGSSLKVLKKYPRLWCMTKPPSRRPKLYIVNLQWTPKDDWAALKLHGKCDDVMRLLMAELGLEIPAYSRWQDPIFSLATPLRAGEEGSHSRKSLCRSREEAPPGDRGAPLSSAPILGGWFGRGCTKRTKRKKVT

Experiments:
[1] = molecular target: T1, Nuclear Respiratory Factor 1 (NRF1); experiment: co-immunoprecipitation from 293T cells
[2] = molecular target: T1, Nuclear Respiratory Factor 1 (NRF1); experiment: co-immunoprecipitation from 293T cells (SIRT7 IP, Protein A/G beads)

Molecule | binding [1] | binding [2]
Flag-tagged SIRT7 (from UniProt Q9NRC8 1-400) (enzyme) | binds | –
B1 | binds | binds

From patent US20180051253A1
